Assay results as given in publication PMC4683533, “Discovery of novel INK4C small-molecule inhibitors to promote human and murine hematopoietic stem cell ex vivo expansion” (Scientific Reports, 2015).

System: HSCs (CD34−LKS cells)
Assay: single hematopoietic stem cell in vitro culture (nmEM colony) assay
Type: cell-based, mouse
Settings: from ED50 values
Experimental: We biologically assessed the 22 putative p18SMI compounds for their ability to maintain HSCs stem cell characteristics, to be specific self-renewal and multi-lineage differentiation, using single cell cultures. […] Thus, we employed single HSC culture to assess p18SMI compounds’ effect upon HSCs. CD34^−LKS cells from C57BL/6 mice were individually deposited into a 96-well plate (one cell/well). The single cell was cultured for 14 days in 100 μL of serum-free medium (Gibco) containing 100 ng/mL of mouse stem cell factor (SCF), 10 ng/mL of mouse interleukin-3 (IL-3), 25 ng/mL of human thrombopoietin (TPO), 2 U/mL of human erythropoietin (EPO) and differing concentrations of the p18SMI compound. Cells were cultured 14 days for in vitro colony formation and colonies were then cytospined and analyzed by flow cytometry to test the subpopulation of cultured cells. Neutrophils (n), macrophages (m), erythroblasts (E) or megakaryocytes (M) were identified by the cell marker of Gr-1, Mac-1, Ter-119 and CD41 using flow cytometry. The wells from each group that generated all lineages (nmEM) were counted and the ratio to the control group (DMSO) was calculated.
Single CD34^-LKS cells from C57BL/6 mice were individually deposited into each well of a 96-well plate along with 100 μL of serum free medium (Gibco) containing 100 ng/mL of mouse SCF, 10 ng/mL of mouse IL-3, 25 ng/mL of human TPO, 2 U/mL of human EPO and p18SMI compounds (different dilutions). Cells were cultured in a 37 °C, 5% CO2 incubator for 14 days for ex vivo colony formation. Colonies were then cytospined and analyzed using flow cytometry. Neutrophils (n), macrophages (m), erythroblasts (E) or megakaryocytes (M) were identified based on their cell surface maker, Gr-1, Mac-1, Ter119 and CD41. Cells were measured on an FACS analyzer (FACSArray, BD Biosciences). […] The wells from each group that generated all lineages (nmEM) were counted. The ratio of p18SMI compound treatment group to the control group (DMSO-treated) was calculated and fitted to a curve to calculate the ED50 value using GraphPad Prism v6.0.

Row | SMILES | fold higher activity in HSCs compared to XIE18–6 [fold] | activity of compound 22 relative to compound 23
1 | CC(=O)Nc1ccc(S(=O)(=O)NCCO)cc1 [Compound 21] | 10 | 
2 | COC(=O)[C@H](NS(=O)(=O)c1ccc(NC(C)=O)cc1)c1ccccc1 [Compound 22] |  | over 1,000 fold
3 | O=C([O-])c1ccc(S(=O)(=O)NC2CCCCC2)cc1.[Na+] [Compound 40, sodium 4-(N-cyclohexylsulfamoyl)benzoate] | 20 | 
